Data published in PubChem BioAssay AID493014 (National Center for Advancing Translational Sciences (NCATS), 2011).
Some of the results follow. The main result of the screen is listed elsewhere. These columns were measured beside it and carry no call. Compounds called inactive in the main read-out are mostly missing here. Words in brackets tell the shape of the fitted curve; partial curves, single points and poor fits give uncertain potencies.

Assay: qHTS Assay to Find Inhibitors of Chronic Active B-Cell Receptor Signaling
Details: ABC-DLBCL IkBa-CBG/CBR reporter, luminescence ratio (green luciferase fused to IkBa over red control in TMD8 lymphoma cells), 4 h
Method in brief: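 TMD8 human ABC-DLBCL cells with doxycycline-inducible IκBα–green luciferase fusion and unfused red luciferase, in 0.5% FBS medium; compounds up to 46 uM, 4 h at 37C. Green/red luminescence ratio, filter-overlap corrected, fitted to concentration-response curves.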

[1] = measured here: CBR red luminescence, cell number
[2] = measured here: IkBa-CBG green luminescence

Question: With `CCOc1cccc2sc(N(Cc3cccnc3)C(=O)c3ccc(C#N)cc3)nc12` as the compound, how does the AC50 [1] read?
Answer: The AC50 was 3.98 µM [falling, partial curve, poor fit].

Question: Which AC50 [1] does the source give for `O=c1[nH]c2ccccc2n1CCC1CCCCC1` here?
Answer: The AC50 was 2.31 µM [rising, partial curve, poor fit].

Question: For `O=C(Cn1[nH]c(=O)c2ccccc2c1=O)Nc1cccnc1`, which AC50 [1] is on record?
Answer: Its AC50 is 7.08 µM [falling, full curve, poor fit].

Question: For `CSCCC(NC(=O)COc1ccccc1)C(=O)N1CCN(c2ccccc2Cl)CC1` (stereo not drawn), which AC50 [1] is on record?
Answer: Its AC50 is 32.6 µM [falling, single point].

Question: Which AC50 [1] does the source give for `O=C(c1cccnc1)N1c2ccccc2Sc2ccccc21` here?
Answer: Its AC50 is 35.5 µM [falling, single point].

Question: With `CC1CCC(NC(=O)C(=O)Nc2ccc3c(c2)OCO3)CC1` (stereo not drawn) as the compound, how does the AC50 [1] read?
Answer: The AC50 was 0.708 µM [falling, full curve].

Question: For `CN(C)c1ccc(/C=C(\C#N)c2ccccc2)cc1`, which AC50 [1] is on record?
Answer: The AC50 was 35.5 µM [falling, single point].

Question: And the AC50 [2]?
Answer: The AC50 was 17.8 µM [falling, partial curve].

Question: With `Cn1c(=O)c2cc(NCc3ccccc3)nnc2n(C)c1=O` as the compound, how does the AC50 [1] read?
Answer: Its AC50 is 2 µM [falling, partial curve, poor fit].

Question: For `CC(C)Oc1ccc(/C=C/C(=O)NCC2COc3ccccc3O2)cc1` (stereo not drawn), which AC50 [1] is on record?
Answer: Its AC50 is 17.8 µM [rising, partial curve, poor fit].

Question: For `COc1ccc(-n2ncc3c(NCCCOC(C)C)ncnc32)cc1`, which AC50 [1] is on record?
Answer: The AC50 was 35.5 µM [falling, single point].

Question: With `O=C(Nc1ccc(Cl)cc1)[C@@H]1[C@@H]2C(=O)N(c3cccc(F)c3)C(=O)[C@@H]2[C@H]2C=CC=NN21` as the compound, how does the AC50 [1] read?
Answer: The AC50 was 11.2 µM [falling, partial curve].

Question: For `NC(=O)c1cc[n+](CC(=O)c2ccc(NC(=O)c3ccccc3)cc2)cc1`, which AC50 [1] is on record?
Answer: The AC50 was 0.355 µM [rising, full curve, poor fit].

Question: Which AC50 [1] does the source give for `CC(OC(=O)Cc1n[nH]c(=O)c2ccccc12)C(=O)Nc1cc(Cl)cc(Cl)c1` (stereo not drawn) here?
Answer: Its AC50 is 23.1 µM [falling, single point].

Question: With `COc1ccc(/C=N/NC(=O)Cn2nc(C)c([N+](=O)[O-])c2C)cc1` as the compound, how does the AC50 [1] read?
Answer: Its AC50 is 29.1 µM [rising, single point].

Question: For `CN1CCc2c(c3c(n2C)CCN(C)[C@@H]3c2cccnc2)[C@H]1c1cccnc1`, which AC50 [1] is on record?
Answer: Its AC50 is 35.5 µM [falling, single point].

Question: For `COc1ccc(OC)c(-n2c(Cn3c(-c4ccccn4)nc4ccccc43)n[nH]c2=S)c1`, which AC50 [1] is on record?
Answer: The AC50 was 0.0794 µM [rising, full curve, poor fit].

Question: For `O=C(O)/C=C\C(=O)Nc1ccccc1C(=O)NC1CCCCC1`, which AC50 [1] is on record?
Answer: The AC50 was 1.12 µM [falling, partial curve, poor fit].

Question: Which AC50 [1] does the source give for `CC1=CC(=O)C=CC1(C)C(Cl)Cl` (stereo not drawn) here?
Answer: Its AC50 is 6.31 µM [falling, single point].

Question: Which results are given for `O=C(CCl)Nc1cn(-c2ccccc2)nc1-c1ccccc1`?
Answer: AC50 [1]: 12.6 µM [falling, partial curve]; AC50 [2]: 35.5 µM [rising, partial curve, poor fit]

Question: Which AC50 [1] does the source give for `O=C(O)CCC(=O)Nc1nc2ccc([N+](=O)[O-])cc2s1` here?
Answer: The AC50 was 12.6 µM [falling, partial curve].

Question: Which AC50 [1] does the source give for `CCCCNC(=O)CC1C(=O)N(Cc2ccccc2)C(C)c2nc3ccccc3n21` (stereo not drawn) here?
Answer: Its AC50 is 0.0891 µM [falling, full curve, poor fit].

Question: Which AC50 [1] does the source give for `O=C(CCl)c1ccc2c(c1)CCN2C(=O)C1CCCCC1` here?
Answer: The AC50 was 15.8 µM [falling, single point].

Question: With `Cc1cc(C)c(S(=O)(=O)Nc2cccnc2)c(C)c1` as the compound, how does the AC50 [1] read?
Answer: Its AC50 is 6.51 µM [falling, single point].

Question: For `CN(c1ccc2nc3ccccc3c(=O)n2n1)C1CCCCC1`, which AC50 [1] is on record?
Answer: Its AC50 is 10 µM [falling, single point].

Question: With `COc1ccc(CCNC(=O)CN2c3cccc4cccc(c34)S2(=O)=O)cc1` as the compound, how does the AC50 [1] read?
Answer: Its AC50 is 4.61 µM [rising, full curve, poor fit].

Question: For `COc1ccccc1/C=C/C(=O)OCCCN(C)C`, which AC50 [1] is on record?
Answer: Its AC50 is 20 µM [falling, single point].

Question: For `CC(C)(O)C#Cc1ccc(CN2CCCC(CO)(Cc3cccc(Cl)c3)C2)cc1` (stereo not drawn), which AC50 [1] is on record?
Answer: The AC50 was 11.2 µM [falling, partial curve].

Question: With `CCCCCCC1/C(=N\NC(=O)c2ccccc2)CCC1C(=O)OC` (stereo not drawn) as the compound, how does the AC50 [1] read?
Answer: Its AC50 is 20 µM [falling, partial curve].

Question: With `C=CCNC(=S)N/N=C/c1ccc(-c2cc(Cl)ccc2Cl)o1` as the compound, how does the AC50 [1] read?
Answer: The AC50 was 11.2 µM [rising, partial curve, poor fit].

Question: For `CCOP(=O)(Cc1ccc(C(C)(C)CC(C)=O)o1)OCC`, which AC50 [1] is on record?
Answer: The AC50 was 3.55 µM [rising, partial curve, poor fit].

Question: Which AC50 [1] does the source give for `CCc1ccc(NC(=O)c2noc3c2CCC3)cc1` here?
Answer: The AC50 was 11.6 µM [falling, single point].
